From the supplement of paper PMC11546906
Structures can show the parent of a compound that is named as a salt. Some of the results follow. Single values are uncertain here, since repeats match poorly.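 FDA-approved drugs were each paired with colistin at one-eighth its MIC and screened against a multidrug-resistant, mcr-1-positive clinical E. coli isolate, with OD600 read after 24 h. Drug-free bacteria served as growth control, plain broth as blank. Combinations were active if OD600 dropped below 0.2.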

Tested on: Escherichia coli 42 (mcr-1-positive clinical isolate)
Experiment: OD600 after 24 h growth with compound plus colistin (absorbance units (OD600)); higher = more bacterial growth (less inhibition)
Settings: first compound 25 µM; colistin concentration 0.5 ug/mL; incubation time 24 h; 37 °C

OD600, inactive:
CCCCC(=O)N(Cc1ccc(-c2ccccc2-c2nn[nH]n2)cc1)[C@H](C(=O)O)C(C)C.CCOC(=O)[C@H](C)C[C@@H](Cc1ccc(-c2ccccc2)cc1)NC(=O)CCC(=O)O [Sacubitril/Valsartan] + CCC(C)CCCC(=O)N[C@@H](CCN)C(=O)N[C@H](C(=O)N[C@@H](CCN)C(=O)N[C@H]1CCNC(=O)[C@H]([C@@H](C)O)NC(=O)[C@H](CCN)NC(=O)[C@H](CCN)NC(=O)[C@H](CC(C)C)NC(=O)[C@@H](CC(C)C)NC(=O)[C@H](CCN)NC1=O)[C@@H](C)O [colistin] 1.12
NC[C@@H]1O[C@H](O[C@H]2[C@@H](O)[C@H](O[C@@H]3[C@@H](O)[C@H](N)C[C@H](N)[C@H]3O[C@H]3O[C@H](CN)[C@@H](O)[C@H](O)[C@H]3N)O[C@@H]2CO)[C@H](N)[C@@H](O)[C@@H]1O [Framycetin sulfate] + CCC(C)CCCC(=O)N[C@@H](CCN)C(=O)N[C@H](C(=O)N[C@@H](CCN)C(=O)N[C@H]1CCNC(=O)[C@H]([C@@H](C)O)NC(=O)[C@H](CCN)NC(=O)[C@H](CCN)NC(=O)[C@H](CC(C)C)NC(=O)[C@@H](CC(C)C)NC(=O)[C@H](CCN)NC1=O)[C@@H](C)O [colistin] 1.12
CN(C)CCc1c[nH]c2ccc(CS(=O)(=O)N3CCCC3)cc12 [Almotriptan Malate] + CCC(C)CCCC(=O)N[C@@H](CCN)C(=O)N[C@H](C(=O)N[C@@H](CCN)C(=O)N[C@H]1CCNC(=O)[C@H]([C@@H](C)O)NC(=O)[C@H](CCN)NC(=O)[C@H](CCN)NC(=O)[C@H](CC(C)C)NC(=O)[C@@H](CC(C)C)NC(=O)[C@H](CCN)NC1=O)[C@@H](C)O [colistin] 1.13
CC(C)c1nc(N(C)S(C)(=O)=O)nc(-c2ccc(F)cc2)c1/C=C/[C@@H](O)C[C@@H](O)CC(=O)O [Rosuvastatin] + CCC(C)CCCC(=O)N[C@@H](CCN)C(=O)N[C@H](C(=O)N[C@@H](CCN)C(=O)N[C@H]1CCNC(=O)[C@H]([C@@H](C)O)NC(=O)[C@H](CCN)NC(=O)[C@H](CCN)NC(=O)[C@H](CC(C)C)NC(=O)[C@@H](CC(C)C)NC(=O)[C@H](CCN)NC1=O)[C@@H](C)O [colistin] 1.01
CCCCc1nc(Cl)c(CO)n1Cc1ccc(-c2ccccc2-c2nnn[nH]2)cc1 [Losartan] + CCC(C)CCCC(=O)N[C@@H](CCN)C(=O)N[C@H](C(=O)N[C@@H](CCN)C(=O)N[C@H]1CCNC(=O)[C@H]([C@@H](C)O)NC(=O)[C@H](CCN)NC(=O)[C@H](CCN)NC(=O)[C@H](CC(C)C)NC(=O)[C@@H](CC(C)C)NC(=O)[C@H](CCN)NC1=O)[C@@H](C)O [colistin] 0.854
Clc1ccc(COC(Cn2ccnc2)c2ccc(Cl)cc2Cl)cc1 (stereo not given) [Econazole] + CCC(C)CCCC(=O)N[C@@H](CCN)C(=O)N[C@H](C(=O)N[C@@H](CCN)C(=O)N[C@H]1CCNC(=O)[C@H]([C@@H](C)O)NC(=O)[C@H](CCN)NC(=O)[C@H](CCN)NC(=O)[C@H](CC(C)C)NC(=O)[C@@H](CC(C)C)NC(=O)[C@H](CCN)NC1=O)[C@@H](C)O [colistin] 0.859
C[C@H]1c2cccc(O)c2C(O)=C2C(=O)[C@]3(O)C(O)=C(C(N)=O)C(=O)[C@@H](N(C)C)[C@@H]3[C@@H](O)[C@@H]21 [Doxycycline] + CCC(C)CCCC(=O)N[C@@H](CCN)C(=O)N[C@H](C(=O)N[C@@H](CCN)C(=O)N[C@H]1CCNC(=O)[C@H]([C@@H](C)O)NC(=O)[C@H](CCN)NC(=O)[C@H](CCN)NC(=O)[C@H](CC(C)C)NC(=O)[C@@H](CC(C)C)NC(=O)[C@H](CCN)NC1=O)[C@@H](C)O [colistin] 0.719
CC(C)(C)NC(=O)[C@H]1CC[C@H]2[C@@H]3CC[C@H]4NC(=O)C=C[C@]4(C)[C@H]3CC[C@]12C [Finasteride] + CCC(C)CCCC(=O)N[C@@H](CCN)C(=O)N[C@H](C(=O)N[C@@H](CCN)C(=O)N[C@H]1CCNC(=O)[C@H]([C@@H](C)O)NC(=O)[C@H](CCN)NC(=O)[C@H](CCN)NC(=O)[C@H](CC(C)C)NC(=O)[C@@H](CC(C)C)NC(=O)[C@H](CCN)NC1=O)[C@@H](C)O [colistin] 0.93
Nc1nc2ccc(OC(F)(F)F)cc2s1 [Riluzole] + CCC(C)CCCC(=O)N[C@@H](CCN)C(=O)N[C@H](C(=O)N[C@@H](CCN)C(=O)N[C@H]1CCNC(=O)[C@H]([C@@H](C)O)NC(=O)[C@H](CCN)NC(=O)[C@H](CCN)NC(=O)[C@H](CC(C)C)NC(=O)[C@@H](CC(C)C)NC(=O)[C@H](CCN)NC1=O)[C@@H](C)O [colistin] 1.03
CN(C)CCOC(c1ccc(Cl)cc1)c1ccccn1 (stereo not given) [Carbinoxamine Maleate Salt] + CCC(C)CCCC(=O)N[C@@H](CCN)C(=O)N[C@H](C(=O)N[C@@H](CCN)C(=O)N[C@H]1CCNC(=O)[C@H]([C@@H](C)O)NC(=O)[C@H](CCN)NC(=O)[C@H](CCN)NC(=O)[C@H](CC(C)C)NC(=O)[C@@H](CC(C)C)NC(=O)[C@H](CCN)NC1=O)[C@@H](C)O [colistin] 1.08
CC(=O)c1c(C)c2cnc(Nc3ccc(N4CCNCC4)cn3)nc2n(C2CCCC2)c1=O [Palbociclib monohydrochloride] + CCC(C)CCCC(=O)N[C@@H](CCN)C(=O)N[C@H](C(=O)N[C@@H](CCN)C(=O)N[C@H]1CCNC(=O)[C@H]([C@@H](C)O)NC(=O)[C@H](CCN)NC(=O)[C@H](CCN)NC(=O)[C@H](CC(C)C)NC(=O)[C@@H](CC(C)C)NC(=O)[C@H](CCN)NC1=O)[C@@H](C)O [colistin] 1
CCC1=C(C)CN(C(=O)NCCc2ccc(S(=O)(=O)NC(=O)N[C@H]3CC[C@H](C)CC3)cc2)C1=O [Glimepiride] + CCC(C)CCCC(=O)N[C@@H](CCN)C(=O)N[C@H](C(=O)N[C@@H](CCN)C(=O)N[C@H]1CCNC(=O)[C@H]([C@@H](C)O)NC(=O)[C@H](CCN)NC(=O)[C@H](CCN)NC(=O)[C@H](CC(C)C)NC(=O)[C@@H](CC(C)C)NC(=O)[C@H](CCN)NC1=O)[C@@H](C)O [colistin] 0.968
CS(=O)(=O)OCCCCOS(C)(=O)=O [Busulfan] + CCC(C)CCCC(=O)N[C@@H](CCN)C(=O)N[C@H](C(=O)N[C@@H](CCN)C(=O)N[C@H]1CCNC(=O)[C@H]([C@@H](C)O)NC(=O)[C@H](CCN)NC(=O)[C@H](CCN)NC(=O)[C@H](CC(C)C)NC(=O)[C@@H](CC(C)C)NC(=O)[C@H](CCN)NC1=O)[C@@H](C)O [colistin] 1.17
O=C(c1cc(Cc2n[nH]c(=O)c3ccccc23)ccc1F)N1CCN(C(=O)C2CC2)CC1 [Olaparib] + CCC(C)CCCC(=O)N[C@@H](CCN)C(=O)N[C@H](C(=O)N[C@@H](CCN)C(=O)N[C@H]1CCNC(=O)[C@H]([C@@H](C)O)NC(=O)[C@H](CCN)NC(=O)[C@H](CCN)NC(=O)[C@H](CC(C)C)NC(=O)[C@@H](CC(C)C)NC(=O)[C@H](CCN)NC1=O)[C@@H](C)O [colistin] 1.17
CCN(CC)CCNC(=O)c1cc(Cl)c(N)cc1OC [Metoclopramide hydrochloride] + CCC(C)CCCC(=O)N[C@@H](CCN)C(=O)N[C@H](C(=O)N[C@@H](CCN)C(=O)N[C@H]1CCNC(=O)[C@H]([C@@H](C)O)NC(=O)[C@H](CCN)NC(=O)[C@H](CCN)NC(=O)[C@H](CC(C)C)NC(=O)[C@@H](CC(C)C)NC(=O)[C@H](CCN)NC1=O)[C@@H](C)O [colistin] 1.08
O=C(Nc1cnn2ccc(N3CCC[C@@H]3c3cc(F)ccc3F)nc12)N1CC[C@H](O)C1 [Larotrectinib] + CCC(C)CCCC(=O)N[C@@H](CCN)C(=O)N[C@H](C(=O)N[C@@H](CCN)C(=O)N[C@H]1CCNC(=O)[C@H]([C@@H](C)O)NC(=O)[C@H](CCN)NC(=O)[C@H](CCN)NC(=O)[C@H](CC(C)C)NC(=O)[C@@H](CC(C)C)NC(=O)[C@H](CCN)NC1=O)[C@@H](C)O [colistin] 1.16
Cc1ccc(C(=O)c2ccc(CC(=O)O)n2C)cc1 [Tolmetin] + CCC(C)CCCC(=O)N[C@@H](CCN)C(=O)N[C@H](C(=O)N[C@@H](CCN)C(=O)N[C@H]1CCNC(=O)[C@H]([C@@H](C)O)NC(=O)[C@H](CCN)NC(=O)[C@H](CCN)NC(=O)[C@H](CC(C)C)NC(=O)[C@@H](CC(C)C)NC(=O)[C@H](CCN)NC1=O)[C@@H](C)O [colistin] 1.12
CN1CCCN=C1/C=C/c1cccc(O)c1 [Oxantel Pamoate] + CCC(C)CCCC(=O)N[C@@H](CCN)C(=O)N[C@H](C(=O)N[C@@H](CCN)C(=O)N[C@H]1CCNC(=O)[C@H]([C@@H](C)O)NC(=O)[C@H](CCN)NC(=O)[C@H](CCN)NC(=O)[C@H](CC(C)C)NC(=O)[C@@H](CC(C)C)NC(=O)[C@H](CCN)NC1=O)[C@@H](C)O [colistin] 0.994
c1cnc2cc3c(cc2n1)[C@@H]1CNC[C@H]3C1 [Varenicline Tartrate] + CCC(C)CCCC(=O)N[C@@H](CCN)C(=O)N[C@H](C(=O)N[C@@H](CCN)C(=O)N[C@H]1CCNC(=O)[C@H]([C@@H](C)O)NC(=O)[C@H](CCN)NC(=O)[C@H](CCN)NC(=O)[C@H](CC(C)C)NC(=O)[C@@H](CC(C)C)NC(=O)[C@H](CCN)NC1=O)[C@@H](C)O [colistin] 0.879
CC1(C)CCC(CN2CCN(c3ccc(C(=O)NS(=O)(=O)c4ccc(NCC5CCOCC5)c([N+](=O)[O-])c4)c(Oc4cnc5[nH]ccc5c4)c3)CC2)=C(c2ccc(Cl)cc2)C1 [Venetoclax] + CCC(C)CCCC(=O)N[C@@H](CCN)C(=O)N[C@H](C(=O)N[C@@H](CCN)C(=O)N[C@H]1CCNC(=O)[C@H]([C@@H](C)O)NC(=O)[C@H](CCN)NC(=O)[C@H](CCN)NC(=O)[C@H](CC(C)C)NC(=O)[C@@H](CC(C)C)NC(=O)[C@H](CCN)NC1=O)[C@@H](C)O [colistin] 0.948

As a short view, some entries already given:
OD600, inactive:
Clc1ccc(COC(Cn2ccnc2)c2ccc(Cl)cc2Cl)cc1 (stereo not given) [Econazole] + CCC(C)CCCC(=O)N[C@@H](CCN)C(=O)N[C@H](C(=O)N[C@@H](CCN)C(=O)N[C@H]1CCNC(=O)[C@H]([C@@H](C)O)NC(=O)[C@H](CCN)NC(=O)[C@H](CCN)NC(=O)[C@H](CC(C)C)NC(=O)[C@@H](CC(C)C)NC(=O)[C@H](CCN)NC1=O)[C@@H](C)O [colistin] 0.859
C[C@H]1c2cccc(O)c2C(O)=C2C(=O)[C@]3(O)C(O)=C(C(N)=O)C(=O)[C@@H](N(C)C)[C@@H]3[C@@H](O)[C@@H]21 [Doxycycline] + CCC(C)CCCC(=O)N[C@@H](CCN)C(=O)N[C@H](C(=O)N[C@@H](CCN)C(=O)N[C@H]1CCNC(=O)[C@H]([C@@H](C)O)NC(=O)[C@H](CCN)NC(=O)[C@H](CCN)NC(=O)[C@H](CC(C)C)NC(=O)[C@@H](CC(C)C)NC(=O)[C@H](CCN)NC1=O)[C@@H](C)O [colistin] 0.719
CC(C)(C)NC(=O)[C@H]1CC[C@H]2[C@@H]3CC[C@H]4NC(=O)C=C[C@]4(C)[C@H]3CC[C@]12C [Finasteride] + CCC(C)CCCC(=O)N[C@@H](CCN)C(=O)N[C@H](C(=O)N[C@@H](CCN)C(=O)N[C@H]1CCNC(=O)[C@H]([C@@H](C)O)NC(=O)[C@H](CCN)NC(=O)[C@H](CCN)NC(=O)[C@H](CC(C)C)NC(=O)[C@@H](CC(C)C)NC(=O)[C@H](CCN)NC1=O)[C@@H](C)O [colistin] 0.93
Nc1nc2ccc(OC(F)(F)F)cc2s1 [Riluzole] + CCC(C)CCCC(=O)N[C@@H](CCN)C(=O)N[C@H](C(=O)N[C@@H](CCN)C(=O)N[C@H]1CCNC(=O)[C@H]([C@@H](C)O)NC(=O)[C@H](CCN)NC(=O)[C@H](CCN)NC(=O)[C@H](CC(C)C)NC(=O)[C@@H](CC(C)C)NC(=O)[C@H](CCN)NC1=O)[C@@H](C)O [colistin] 1.03
